The numbers were not newly measured in US20220411750A1, “CELL STRUCTURE, PRODUCTION METHOD THEREOF, AND METHOD FOR EVALUATING HEPATOTOXICITY OF SUBSTANCE TO BE TESTED” (TOPPAN INC., priority 2019, published 2022), which cites them from elsewhere.

SMILES strings stand for the structures.

The conditions of this data set: Yes/No; Yes for No. 1-14, No for No. 15-18; cited from earlier work.

Turning to `CCCCc1oc2ccccc2c1C(=O)c1cc(I)c(OCCN(CC)CC)c(I)c1` [Amiodarone], the Toxicity result is “Yes”.
